Data taken from patent US20250236669A1.
These are yes or no findings as the source states them, for the method shown. Some results given as binding are weak or reduced against the parent protein; the word gives no strength.

What was measured:
[1] = molecular target: CB1 T210A/fusion partner, over-expressed on TRex CHO A56 cells (human) (UniProt P21554); assay: flow cytometry on Trex-CHO CB1 T210A/fusion partner (A56) cells, compared with Trex-CHO parental cells; concentration not printed on the sheet
[2] = molecular target: CB1 T210A/fusion partner, over-expressed on TRex CHO A56 cells (human) (UniProt P21554); assay: flow cytometry, IgG at 300 nM and 30 nM on Trex-CHO CB1 T210A/fusion partner cells, compared with Trex-CHO parental cells
[3] = molecular target: native full length human CB1 receptor (TRex-CHO A156 cells) (human) (UniProt P21554); assay: flow cytometry on Trex-CHO Native human CB1 (A156) cells, compared with Trex-CHO parental cells; concentration not printed on the sheet
[4] = molecular target: native full length human CB1 receptor (TRex-CHO A156 cells) (human) (UniProt P21554); assay: flow cytometry, IgG at 300 nM and 30 nM on Trex-CHO Native human CB1 cells, compared with Trex-CHO parental cells
[5] = molecular target: CB1 T210A/fusion partner, over-expressed on TRex CHO A56 cells (human) (UniProt P21554); assay: flow cytometry (FIG. 2B)
[6] = molecular target: CB1 T210A/fusion partner, over-expressed on TRex CHO A56 cells (human) (UniProt P21554); assay: flow cytometry
[7] = molecular target: CB1 T210A/fusion partner, over-expressed on TRex CHO A56 cells (human) (UniProt P21554); assay: flow cytometry, mean fluorescence intensity against IgG concentration, cells with CB1 T210A/3A4C (A56)
[8] = molecular target: CB1 T210A/fusion partner, over-expressed on TRex CHO A56 cells (human) (UniProt P21554); assay: flow cytometry, mean fluorescence intensity against antibody concentration, TRex-CHO CB1 (T210A/3A4C) cells

B1: PA2LR3-P1H4 (chimeric) (antibody, V domains shown)
VH: EVQLQQSGAELVRPGSSVKISCKASGYVFGNYWMNWVKQRPGQGLEWIGQIYPGDGDTNYNGKFKGKATLTADKSSSTAYMQLSSLTSEDSAVYFCARSHGNYFPYWGQGTLVTVSA
VL: QIVLTQSPAIMSASLGERVTMTCTASSSVSSSYLHWYQQKPGSSPKLWIYSTSNLASGVPARFSGSGSGTSYSLTISSMEAEDAATYYCQQWSSYPLTFGAGTKLELKR
binding [1]: binds | binding [2]: binds | binding [3]: binds | binding [4]: binds

B2: PA2LR3-P4B1 (chimeric) (antibody, human IgG1, kappa, V domains shown)
VH: EVQLQQSGAELVRPGSSVKISCKASGFAFSNYWMNWVKQRPGQGLEWIGQIYPGDGDTNFNGKFKGRAILTADISSNTAYMQLSSLTSEDSAVYFCARSHGNYFPYWGQGTLVTVSA
VL: QIVLTQSPAIMSASLGERVTMTCTASSSVSSSYLHWYQQKPGSSPKLWIYSTSNLASGVPARFSGSGSGTSYSLTISSMEAEDAATYYCHQYHRSPLTFGAGTKLELKR
binding [2]: binds

B3: PA2LR3-P4B5 (chimeric) (antibody, human IgG1, kappa, V domains shown)
VH: EVQLQQSGAELVRPGSSVKISCKASGYAFSYYWMNWVKQRPGQGLEWIGQIYPGDGDTNYSGRFKGKATLTADKSSSTAYIQLSSLTSEDSAVYFCARSHGNYFPYWGQGTLVTVSA
VL: DIVLNQSPAIMSASLGERVTMTCTASSSVSSSYLHWYQQKPGSSPKLWIYSTSNLASGVPARFSGSGSGTSYSLTISSMEAEDAATYYCHQYHRSPLTFGAGTKLEIKR
binding [2]: binds

B4: PA2LR3-P4C6 (chimeric) (antibody, V domains shown)
VH: EVQLQQSGAELVRPGSSVKISCKASGYAFSYYWMNWVKQRPGQGLEWIGQIYPGDGDTNYNGKFKGKATLTADKSSSTAYMQLSSLTSEDSAVYFCARSHGNYFPYWGQGTLVTVSA
VL: DIVITQSPAIVSASLGERVTMTCTASSSVSSSYLHWYQQKPGSSPKLWIYSTSNLASGVPARFSGSGSGTSYSLTISSMEAEDAATYYCQQWSSYPLTFGAGTKLEIKR
binding [2]: binds | binding [4]: binds

B5: PA2LR3-P4G10 (chimeric) (antibody, V domains shown)
VH: EVQLQQFGAELVRPGSSVKISCKASGYAFSYYWMNWVKQRPGQGLEWIGQIYPGDGDTNYNGKFKGKATLTADKSSSTAYMQLSSLTSEDSAVYFCARSHGNYFAYWGQGTLVTVSA
VL: DIVLTQSPAIMSASLGERVTMTCTASSSVSSSYLHWYQQKPGSSPKLWIYSTSNLASGVPARFSGSGSGTSYSLTISSMEAEDAATYYCQQWSSNPLTFGAGTKLELKR
binding [2]: binds | binding [4]: binds

B6: PA2LR3-P2D3 (chimeric) (antibody, human IgG1, kappa, V domains shown)
VH: EVQLQQSGAELVRPGSSVKISCKASGYAFSYYWMNWVKQRPGQGLEWIGQIYPGDGDTNYNGKFKGKATLTADKSSSTAYMQLSSLTSEDSAVYFCARSHGSYFAYWGQGTLVTVSA
VL: DIELAQSPASLAVSLGQRATISCRASESVDSYGNSFMHWYQQKPGQPPKLLIYLASNLESGVPARFSGSGSRADFTLTIDPVEADDAATYYCLQYASSPPTFGAGTKLEIKR
binding [2]: binds

B7: PA2LR3-P1G6 (chimeric) (antibody, V domains shown)
VH: EVQLQQSGAELVRPGSSVKISCKASGYAFSYYWMNWVKQRPGQGLEWIGQIYPGDGDTNYNGKFKGKATLTVDKSSSTAYMQLSSLTSEDSAVYFCARSHGNYFAYWGQGTLVTVSA
VL: DIVLSQSPAIMSASLGERVTMTCTASSSVSSSYLHWYQQKPGSSPKLWIYSTSNLASGVPARFSGSGSGTSYSLTISRMEAEDAATYYCQQWSSYPLTFGAGTKLELKR
binding [1]: binds | binding [3]: binds

B8: PA2LR3-P2B8 (chimeric) (antibody, V domains shown)
VH: EVQLQQSGAELVRPGSSVKISCKASGYAFSYYWMNWVKQRPGQGLEWIGQIYPGDGDTNYNGKFKGKATLTADKSSSTAYMQLSSLTSEDSAVYFCARSHGNYFAYWGQGTLVTVSA
VL: DIVMTQSPAIMSASLGERVTMTCTASSSISSSYLHWYQQKPGSSPKLWIYSTSNLASGVPARFSGSGSGTSYSLTISSMEAEDAATYYCHQYHRSPLAFGAGTKLELKR
binding [1]: binds | binding [3]: binds

B9: 36E12B6C2 IgG (antibody, V domains shown)
VH: QVQLQQSGAELVRPGSSVKISCKASGYEFSYYWMNWVKQRPGQGLQWIGQIYPGDGDTNYNGKFKGKATLTADKSSSTAYMHLTSLTSEDSAVYFCARSGGNPFAFWGQGTLVTVSA
VL: DIQMTQTSSSLSASLGDRVTFSCRASQDISNYLNWYQQKPDGTVKLLIYYTSRLHSGVTSRFRGSGSGTDYSLTISNLEQEDVATYFCQQGHTLPWSFGGGTKLEIKR
binding [5]: binds | binding [6]: binds | binding [7]: binds

B10: PA2LR3-P2E5 (chimeric) (antibody, V domains shown)
VH: EVQLQQSGAELVRPGSSVKISCKASGYAFRDYWMNWVKQRPGQGLEWIGQIYPGDGATNYIGKFKGKATLTADKSSSTAYMQLSSLTSEDSAVYFCARSHGNYFPYWGHGTLVTVSA
VL: QIVLTQSPAIMSASLGERVTMTCTASSSVSSSYLHWYQQKPGSSPKLWIYSTSNLASGVPARFSGSGSGTSYSLTISSMEAEDAATYYCQQWSSYPLTFGAGTKLELKR
binding [2]: binds | binding [4]: binds

B11: PA2LR3-P3B10 (chimeric) (antibody, V domains shown)
VH: EVQLQQSGAELVRPGSSVKISCKASGYAFSYYWMNWVKQRPGQGLEWIGQIYPGDGDTNYNGKFKGKATLTADKSSSTAYMQLSSLTSEDSAVYFCARSHGNYFPYWGQGTLVTVSA
VL: DIVITQSPAIVSASLGERVTMTCTASSSVSSSYLHWYQQKPGSSPKLWIYSTSNLASGVPARFSGSGSGTSYSLTISSMEAEDAATYYCQQWSSYPLTFGAGTKLEIKR
binding [2]: binds | binding [4]: binds

B12: P1C4-h0-IgG1 (antibody, V domains shown)
VH: QVQLVQSGAEVKKPGSSVKVSCKASGGTFSYYWMNWVRQAPGQGLEWMGQIYPGDGETKYAQKFQGRVTITADKSTSTAYMELSSLRSEDTAVYYCARSHGNYLPYWGQGTLVTVSS
VL: EIVLTQSPATLSLSPGERATLSCRASQSVSSSYLHWYQQKPGQAPRLLIYSTSNLASGIPARFSGSGSGTDFTLTISRLEPEDFAVYYCHQYHRSPPTFGQGTKVEIKR
binding [8]: binds | binding [6]: binds
